US20190290614A1, “Methods for Reducing Recurrence of Tumors” (Beth Israel Deaconess Medical Center, Inc., priority 2016, published 2019)
At least one structure is not confirmed: it was looked up by name or label, or the drawing left a doubt.

Tests used:
[1] = celecoxib alone; cited from earlier work
[2] = test system: Lewis Lung carcinoma (LLC); experiment: spontaneous LLC lung metastasis model after primary tumor resection (survival); assay type: in vivo, mice; details: pre-operative (2 hrs prior to surgery); ketorolac 7.5 mg/kg I.P.; celecoxib 30 mg/kg bid po; FIG. 1A
Excerpt: Doses were selected based on previous publications by the present inventors and others, and/or by analogy to the human dose.

In the case of `Cc1ccc(-c2cc(C(F)(F)F)nn2-c2ccc(S(N)(=O)=O)cc2)cc1` [celecoxib], the “survival of tumor-bearing mice” value [1] is listed as “did not improve survival” and the “survival after primary tumor resection” value [2] is listed as “prolonged survival”.
